PubChem BioAssay AID1508597, Cure First | 2020

Aim: 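Knock-downs altering ovarian cancer cell survival with or without PARP inhibitor rucaparib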 (primary screen)
Cell system: human ovarian carcinoma lines grown from tumours: OCI-P5x (papillary serous) and OCI-C5x (clear cell)
Knock-down reagent: siRNA pool against human genes, 1.25 pmol siRNA per well
Duration: 72 h or 96 h, depending on the cell culture
Conditions: rucaparib 20 µM (about IC30) or vehicle, present until read-out
Rucaparib or vehicle: Rucaparib
Cell line: OCI-C5x (clear cell)
Measurement: 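Luminescent ATP-based viability assay read 72 or 96 h after transfection, depending on culture, given as normalised percent viability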
Reading the numbers: viability, normalised: higher = more viable cells remaining
Rule for the call: 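Active when normalised viability falls below 80 percent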
Meaning of the calls: active = viability under 80%; inactive = viability 80% or more
Shown is a random part of the about 2,100 reagents, in one setting of the screen. 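Calls flag viability under 80% in either arm, not effects specific to rucaparib; the reference for percent is not stated.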 Some reagents were tested in more than one well and are listed for each. Reagent sequences are not shown. Not stated in the record: the 100% reference.

Gene | technical replicate | viability, normalised (%) | call
PALB2 (partner and localizer of BRCA2) | 1 | 71.2 | active
PALB2 (partner and localizer of BRCA2) | 1 | 39.9 | active
PALB2 (partner and localizer of BRCA2) | 2 | 59.3 | active
PALB2 (partner and localizer of BRCA2) | 2 | 93.3 | inactive
PALB2 (partner and localizer of BRCA2) | 3 | 43.6 | active
PALB2 (partner and localizer of BRCA2) | 3 | 73.1 | active
TDRD6 (tudor domain containing 6) | 1 | 65.2 | active
TDRD6 (tudor domain containing 6) | 2 | 54.2 | active
TDRD6 (tudor domain containing 6) | 3 | 42.5 | active
RIOK2 (RIO kinase 2) | 1 | 50.6 | active
RIOK2 (RIO kinase 2) | 2 | 43 | active
RIOK2 (RIO kinase 2) | 3 | 36.1 | active
PIP5K1A (phosphatidylinositol-4-phosphate 5-kinase type 1 alpha) | 1 | 61 | active
PIP5K1A (phosphatidylinositol-4-phosphate 5-kinase type 1 alpha) | 2 | 69.2 | active
PIP5K1A (phosphatidylinositol-4-phosphate 5-kinase type 1 alpha) | 3 | 71 | active
BTAF1 (B-TFIID TATA-box binding protein associated factor 1) | 1 | 40.6 | active
BTAF1 (B-TFIID TATA-box binding protein associated factor 1) | 2 | 56.5 | active
BTAF1 (B-TFIID TATA-box binding protein associated factor 1) | 3 | 42.2 | active
TNRC6A (trinucleotide repeat containing adaptor 6A) | 1 | 70.4 | active
TNRC6A (trinucleotide repeat containing adaptor 6A) | 2 | 76.7 | active
TNRC6A (trinucleotide repeat containing adaptor 6A) | 3 | 71.1 | active
DDX31 (DEAD-box helicase 31) | 1 | 68.2 | active
DDX31 (DEAD-box helicase 31) | 2 | 58 | active
DDX31 (DEAD-box helicase 31) | 3 | 62.7 | active
GK (glycerol kinase) | 1 | 53.9 | active
GK (glycerol kinase) | 2 | 50.4 | active
GK (glycerol kinase) | 3 | 66.5 | active
RIPK4 (receptor interacting serine/threonine kinase 4) | 1 | 62.3 | active
RIPK4 (receptor interacting serine/threonine kinase 4) | 2 | 65.3 | active
RIPK4 (receptor interacting serine/threonine kinase 4) | 3 | 71.3 | active
CDK14 (cyclin dependent kinase 14) | 1 | 70.8 | active
CDK14 (cyclin dependent kinase 14) | 2 | 67.6 | active
CDK14 (cyclin dependent kinase 14) | 3 | 65.4 | active
BMX (BMX non-receptor tyrosine kinase) | 1 | 54.4 | active
BMX (BMX non-receptor tyrosine kinase) | 2 | 58.6 | active
BMX (BMX non-receptor tyrosine kinase) | 3 | 47.5 | active
CBX2 (chromobox 2) | 1 | 42.9 | active
CBX2 (chromobox 2) | 2 | 55.6 | active
CBX2 (chromobox 2) | 3 | 39.4 | active
NONO (non-POU domain containing octamer binding) | 1 | 44.8 | active
NONO (non-POU domain containing octamer binding) | 2 | 39.7 | active
NONO (non-POU domain containing octamer binding) | 3 | 57.8 | active
MSH4 (mutS homolog 4) | 1 | 45.4 | active
MSH4 (mutS homolog 4) | 2 | 48 | active
MSH4 (mutS homolog 4) | 3 | 54.9 | active
CSNK2A1 (casein kinase 2 alpha 1) | 1 | 59.9 | active
CSNK2A1 (casein kinase 2 alpha 1) | 1 | 61.5 | active
CSNK2A1 (casein kinase 2 alpha 1) | 2 | 50.6 | active
CSNK2A1 (casein kinase 2 alpha 1) | 2 | 39.8 | active
CSNK2A1 (casein kinase 2 alpha 1) | 3 | 39 | active
CSNK2A1 (casein kinase 2 alpha 1) | 3 | 61 | active
KPNA3 (karyopherin subunit alpha 3) | 1 | 70.2 | active
KPNA3 (karyopherin subunit alpha 3) | 2 | 68.9 | active
KPNA3 (karyopherin subunit alpha 3) | 3 | 60.4 | active
POLQ (DNA polymerase theta) | 1 | 58.9 | active
POLQ (DNA polymerase theta) | 1 | 58.5 | active
POLQ (DNA polymerase theta) | 2 | 53.9 | active
POLQ (DNA polymerase theta) | 2 | 62.2 | active
POLQ (DNA polymerase theta) | 3 | 50.8 | active
POLQ (DNA polymerase theta) | 3 | 41.3 | active

8 of these entries in another layout:
Gene,technical replicate,"viability, normalised (%)",call
RIOK2 (RIO kinase 2),1,50.6,active
RIOK2 (RIO kinase 2),2,43,active
RIOK2 (RIO kinase 2),3,36.1,active
PIP5K1A (phosphatidylinositol-4-phosphate 5-kinase type 1 alpha),1,61,active
PIP5K1A (phosphatidylinositol-4-phosphate 5-kinase type 1 alpha),2,69.2,active
PIP5K1A (phosphatidylinositol-4-phosphate 5-kinase type 1 alpha),3,71,active
BTAF1 (B-TFIID TATA-box binding protein associated factor 1),1,40.6,active
BTAF1 (B-TFIID TATA-box binding protein associated factor 1),2,56.5,active
